PubChem BioAssay AID720710, VTT Finland – 2013
The whole screen tested about 1,380 reagents; shown is a random part of them. 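One array per condition without replicates; hydroxyurea arrays received 2 mM for 16 h plus 3 h recovery.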 The numbers tell different reagents against one gene apart. Not all columns of the deposit are shown.

Purpose: 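Knock-downs that leave cyclin E-high cells sensitive to replication stress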 (primary screen)
Cell system: human U-2 OS bone cancer cells, parental and a cyclin E (CCNE1) overexpressing line
Reagents: single siRNA against human genes, 1 µM siRNA in the printed spot mix
Timing: 67 h
Challenge: half the arrays: hydroxyurea 2 mM for 16 h, then 3 h recovery; other arrays untreated
Read-out: 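DNA synthesis measured as imaged EdU uptake per nucleus (DAPI) at 67 h, normalised to subgrid median and given as z-score versus non-targeting controls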
Direction: EdU z-score, cyclin E line, hydroxyurea and EdU z-score, parental, hydroxyurea: higher = more DNA synthesis than non-targeting controls

RAD9A #1 → EdU z-score, cyclin E line, hydroxyurea = -0.29; EdU z-score, parental, hydroxyurea = -2.64
RAD9A #2 → EdU z-score, cyclin E line, hydroxyurea = 1.01; EdU z-score, parental, hydroxyurea = 0.534
RPA3 #1 → EdU z-score, cyclin E line, hydroxyurea = -1.33; EdU z-score, parental, hydroxyurea = -0.101
RPA3 #2 → EdU z-score, cyclin E line, hydroxyurea = -0.672; EdU z-score, parental, hydroxyurea = 2.83
H2AC4 #1 → EdU z-score, cyclin E line, hydroxyurea = -1.62; EdU z-score, parental, hydroxyurea = -1.17
H2AC4 #2 → EdU z-score, cyclin E line, hydroxyurea = 1.88; EdU z-score, parental, hydroxyurea = 0.653
CCNH #1 → EdU z-score, cyclin E line, hydroxyurea = -0.537; EdU z-score, parental, hydroxyurea = 0.00312
CCNH #2 → EdU z-score, cyclin E line, hydroxyurea = 0.115; EdU z-score, parental, hydroxyurea = 0.712
LATS1 #1 → EdU z-score, cyclin E line, hydroxyurea = 0.405; EdU z-score, parental, hydroxyurea = 0.439
LATS1 #2 → EdU z-score, cyclin E line, hydroxyurea = 1.16; EdU z-score, parental, hydroxyurea = 1.16
LOC730313 #1 → EdU z-score, cyclin E line, hydroxyurea = -0.296; EdU z-score, parental, hydroxyurea = 1.43
LOC730313 #2 → EdU z-score, cyclin E line, hydroxyurea = 0.259; EdU z-score, parental, hydroxyurea = 1.51
MUS81 #1 → EdU z-score, cyclin E line, hydroxyurea = 0.925; EdU z-score, parental, hydroxyurea = -2.48
MUS81 #2 → EdU z-score, cyclin E line, hydroxyurea = 2.05; EdU z-score, parental, hydroxyurea = -1.33
HMGB2 #1 → EdU z-score, cyclin E line, hydroxyurea = -0.565; EdU z-score, parental, hydroxyurea = -1.01
HMGB2 #2 → EdU z-score, cyclin E line, hydroxyurea = 1.33; EdU z-score, parental, hydroxyurea = 1.91
GTF2H5 #1 → EdU z-score, cyclin E line, hydroxyurea = -0.616; EdU z-score, parental, hydroxyurea = -4.19
GTF2H5 #2 → EdU z-score, cyclin E line, hydroxyurea = -0.404; EdU z-score, parental, hydroxyurea = -0.267
SLC35F1 #1 → EdU z-score, cyclin E line, hydroxyurea = -0.459; EdU z-score, parental, hydroxyurea = -2.25
SLC35F1 #2 → EdU z-score, cyclin E line, hydroxyurea = -0.14; EdU z-score, parental, hydroxyurea = 3.8
STAG1 #1 → EdU z-score, cyclin E line, hydroxyurea = 0.323; EdU z-score, parental, hydroxyurea = 0.503
STAG1 #2 → EdU z-score, cyclin E line, hydroxyurea = 1.09; EdU z-score, parental, hydroxyurea = 0.908
WDR36 #1 → EdU z-score, cyclin E line, hydroxyurea = -1.23; EdU z-score, parental, hydroxyurea = -2.87
WDR36 #2 → EdU z-score, cyclin E line, hydroxyurea = -0.638; EdU z-score, parental, hydroxyurea = -2
POLA1 #1 → EdU z-score, cyclin E line, hydroxyurea = 0.365; EdU z-score, parental, hydroxyurea = -0.694
POLA1 #2 → EdU z-score, cyclin E line, hydroxyurea = 0.617; EdU z-score, parental, hydroxyurea = 4.19
ADAR #1 → EdU z-score, cyclin E line, hydroxyurea = -2.34; EdU z-score, parental, hydroxyurea = 1.48
ADAR #2 → EdU z-score, cyclin E line, hydroxyurea = 1.35; EdU z-score, parental, hydroxyurea = 1.51
STAG2 #1 → EdU z-score, cyclin E line, hydroxyurea = -0.638; EdU z-score, parental, hydroxyurea = -3.59
STAG2 #2 → EdU z-score, cyclin E line, hydroxyurea = -0.493; EdU z-score, parental, hydroxyurea = 1.26
MMS19 #1 → EdU z-score, cyclin E line, hydroxyurea = -1.89; EdU z-score, parental, hydroxyurea = -1.25
MMS19 #2 → EdU z-score, cyclin E line, hydroxyurea = -1.38; EdU z-score, parental, hydroxyurea = 3.78
